Experimental findings from paper PMC5078767 are described below.

By UniProt entry, the sequences of proteins in these tests, tags left out.
UniProt O15169: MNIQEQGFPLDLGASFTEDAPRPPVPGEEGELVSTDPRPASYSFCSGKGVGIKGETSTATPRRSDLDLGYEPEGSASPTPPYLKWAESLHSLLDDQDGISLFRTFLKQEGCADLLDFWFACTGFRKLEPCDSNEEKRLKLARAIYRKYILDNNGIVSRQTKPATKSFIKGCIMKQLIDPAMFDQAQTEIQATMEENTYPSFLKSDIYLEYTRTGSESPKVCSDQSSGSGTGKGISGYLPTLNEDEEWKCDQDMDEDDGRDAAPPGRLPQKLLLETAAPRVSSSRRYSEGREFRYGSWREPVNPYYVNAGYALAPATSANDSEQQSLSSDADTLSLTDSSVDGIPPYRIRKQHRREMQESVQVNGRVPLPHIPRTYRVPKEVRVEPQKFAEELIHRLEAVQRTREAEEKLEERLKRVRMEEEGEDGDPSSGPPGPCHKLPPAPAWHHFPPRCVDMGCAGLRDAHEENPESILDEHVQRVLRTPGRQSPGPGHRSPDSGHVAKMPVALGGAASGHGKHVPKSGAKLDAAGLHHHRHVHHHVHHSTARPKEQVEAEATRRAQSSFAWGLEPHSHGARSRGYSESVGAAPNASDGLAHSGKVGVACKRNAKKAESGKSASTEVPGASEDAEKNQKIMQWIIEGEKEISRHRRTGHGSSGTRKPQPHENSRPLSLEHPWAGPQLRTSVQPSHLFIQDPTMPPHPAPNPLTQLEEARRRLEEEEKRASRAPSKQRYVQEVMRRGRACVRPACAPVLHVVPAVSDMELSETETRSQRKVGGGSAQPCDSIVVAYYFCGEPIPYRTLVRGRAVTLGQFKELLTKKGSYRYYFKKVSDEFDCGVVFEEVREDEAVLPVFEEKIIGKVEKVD

In assay [1] the target is T1, endogenous DVL-1 (human (endogenous in MDA-MB-231 or SW480)) (UniProt O14640).
T1 sequence: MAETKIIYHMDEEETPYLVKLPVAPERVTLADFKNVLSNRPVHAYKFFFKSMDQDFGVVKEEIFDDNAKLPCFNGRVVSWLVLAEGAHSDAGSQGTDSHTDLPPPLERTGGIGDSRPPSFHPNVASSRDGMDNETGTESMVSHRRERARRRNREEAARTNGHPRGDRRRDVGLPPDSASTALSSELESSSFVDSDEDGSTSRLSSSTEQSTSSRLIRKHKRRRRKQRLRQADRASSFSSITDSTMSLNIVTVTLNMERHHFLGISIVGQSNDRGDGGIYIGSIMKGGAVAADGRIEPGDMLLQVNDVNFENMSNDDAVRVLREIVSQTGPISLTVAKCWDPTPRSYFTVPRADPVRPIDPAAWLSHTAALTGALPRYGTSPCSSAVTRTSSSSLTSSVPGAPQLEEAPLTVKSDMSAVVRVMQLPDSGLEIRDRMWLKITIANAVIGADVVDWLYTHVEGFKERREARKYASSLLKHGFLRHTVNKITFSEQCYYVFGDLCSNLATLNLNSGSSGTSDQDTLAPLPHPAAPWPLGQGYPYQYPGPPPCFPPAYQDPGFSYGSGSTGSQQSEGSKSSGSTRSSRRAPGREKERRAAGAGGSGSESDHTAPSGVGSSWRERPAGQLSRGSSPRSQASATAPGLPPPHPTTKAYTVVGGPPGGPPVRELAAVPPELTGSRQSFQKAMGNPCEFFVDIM
As to the kind of experiment: co-IP; lysates of LMO2-overexpressing, control and sh-LMO2 MDA-MB-231/SW480 cells, upon Wnt3A stimulation; immunoprecipitated with anti-DVL-1/2, immunoblotted with anti-Axin1; 1 mg total protein.

The target of assay [2] is T2, MBP-LMO2 recombinant fusion protein (human) (UniProt P25791).
T2 sequence: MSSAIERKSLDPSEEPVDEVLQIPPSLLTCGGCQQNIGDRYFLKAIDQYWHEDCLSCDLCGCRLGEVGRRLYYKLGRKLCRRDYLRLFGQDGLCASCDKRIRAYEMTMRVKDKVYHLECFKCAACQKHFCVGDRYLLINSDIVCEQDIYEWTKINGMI
As to the kind of experiment: pull-down; purified recombinant MBP-LMO2 incubated with lysates of HEK293T cells transiently overexpressing Myc-DVL constructs; precipitated with amylose resin; anti-Myc immunoblot; 1 mg total protein; only the target purified.

Assay [3] has as its target T3, endogenous LMO2 (human (endogenous in MDA-MB-231 and SW480)) (UniProt P25791).
T3 sequence: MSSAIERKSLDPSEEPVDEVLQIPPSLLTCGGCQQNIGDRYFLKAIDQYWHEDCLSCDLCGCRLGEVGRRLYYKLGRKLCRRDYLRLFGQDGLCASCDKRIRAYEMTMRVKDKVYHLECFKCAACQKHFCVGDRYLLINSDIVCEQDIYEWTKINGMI
As to the kind of experiment: co-IP; isolated cytosolic and nuclear fractions of MDA-MB-231 and SW480 cells (Fig. S3B).

For assay [4], the target named is T3, endogenous LMO2 (human (endogenous in MDA-MB-231 and SW480)). Kind of assay: co-IP; lysates of MDA-MB-231 or SW480 cells; immunoprecipitated with anti-LMO2, immunoblotted with anti-DVL-1 or anti-DVL-2; 1 mg total protein; endogenous proteins.

These are yes or no findings as the source states them, for the method shown. In cells and extracts the contact can be indirect. Some entries that bind do so weakly or less than the wild type. For some of these results: Sequences can lack the tags named with a protein.

In the case of “endogenous Axin1 (from UniProt O15169 1-862)”, the binding entry in assay [1] is given as “binds”.

B1: DVL-2 ΔDEP (1-400 aa), Myc-tagged (domain or fragment, UniProt O14641 1-400)
chain: MAGSSTGGGGVGETKVIYHLDEEETPYLVKIPVPAERITLGDFKSVLQRPAGAKYFFKSMDQDFGVVKEEISDDNARLPCFNGRVVSWLVSSDNPQPEMAPPVHEPRAELAPPAPPLPPLPPERTSGIGDSRPPSFHPNVSSSHENLEPETETESVVSLRRERPRRRDSSEHGAGGHRTGGPSRLERHLAGYESSSTLMTSELESTSLGDSDEEDTMSRFSSSTEQSSASRLLKRHRRRRKQRPPRLERTSSFSSVTDSTMSLNIITVTLNMEKYNFLGISIVGQSNERGDGGIYIGSIMKGGAVAADGRIEPGDMLLQVNDMNFENMSNDDAVRVLRDIVHKPGPIVLTVAKCWDPSPQAYFTLPRNEPIQPIDPAAWVSHSAALTGTFPAYPGSSSMS
Regarding B1, in assay [2], the binding result was “binds”.

B2: DVL-1 PDZ domain (200-400 aa), Myc-tagged (domain or fragment, UniProt O14640 200-400)
chain: TSRLSSSTEQSTSSRLIRKHKRRRRKQRLRQADRASSFSSITDSTMSLNIVTVTLNMERHHFLGISIVGQSNDRGDGGIYIGSIMKGGAVAADGRIEPGDMLLQVNDVNFENMSNDDAVRVLREIVSQTGPISLTVAKCWDPTPRSYFTVPRADPVRPIDPAAWLSHTAALTGALPRYGTSPCSSAVTRTSSSSLTSSVPG
With B2, the binding result in assay [2] is “binds”.

B3: Myc-DVL-1 (full-length human Dishevelled-1) (protein, UniProt O14640 1-695)
chain: MAETKIIYHMDEEETPYLVKLPVAPERVTLADFKNVLSNRPVHAYKFFFKSMDQDFGVVKEEIFDDNAKLPCFNGRVVSWLVLAEGAHSDAGSQGTDSHTDLPPPLERTGGIGDSRPPSFHPNVASSRDGMDNETGTESMVSHRRERARRRNREEAARTNGHPRGDRRRDVGLPPDSASTALSSELESSSFVDSDEDGSTSRLSSSTEQSTSSRLIRKHKRRRRKQRLRQADRASSFSSITDSTMSLNIVTVTLNMERHHFLGISIVGQSNDRGDGGIYIGSIMKGGAVAADGRIEPGDMLLQVNDVNFENMSNDDAVRVLREIVSQTGPISLTVAKCWDPTPRSYFTVPRADPVRPIDPAAWLSHTAALTGALPRYGTSPCSSAVTRTSSSSLTSSVPGAPQLEEAPLTVKSDMSAVVRVMQLPDSGLEIRDRMWLKITIANAVIGADVVDWLYTHVEGFKERREARKYASSLLKHGFLRHTVNKITFSEQCYYVFGDLCSNLATLNLNSGSSGTSDQDTLAPLPHPAAPWPLGQGYPYQYPGPPPCFPPAYQDPGFSYGSGSTGSQQSEGSKSSGSTRSSRRAPGREKERRAAGAGGSGSESDHTAPSGVGSSWRERPAGQLSRGSSPRSQASATAPGLPPPHPTTKAYTVVGGPPGGPPVRELAAVPPELTGSRQSFQKAMGNPCEFFVDIM
Take B3: the binding result in assay [2] is reported as “binds”.

B4: endogenous DVL-1 (protein, UniProt O14640 1-695)
chain: MAETKIIYHMDEEETPYLVKLPVAPERVTLADFKNVLSNRPVHAYKFFFKSMDQDFGVVKEEIFDDNAKLPCFNGRVVSWLVLAEGAHSDAGSQGTDSHTDLPPPLERTGGIGDSRPPSFHPNVASSRDGMDNETGTESMVSHRRERARRRNREEAARTNGHPRGDRRRDVGLPPDSASTALSSELESSSFVDSDEDGSTSRLSSSTEQSTSSRLIRKHKRRRRKQRLRQADRASSFSSITDSTMSLNIVTVTLNMERHHFLGISIVGQSNDRGDGGIYIGSIMKGGAVAADGRIEPGDMLLQVNDVNFENMSNDDAVRVLREIVSQTGPISLTVAKCWDPTPRSYFTVPRADPVRPIDPAAWLSHTAALTGALPRYGTSPCSSAVTRTSSSSLTSSVPGAPQLEEAPLTVKSDMSAVVRVMQLPDSGLEIRDRMWLKITIANAVIGADVVDWLYTHVEGFKERREARKYASSLLKHGFLRHTVNKITFSEQCYYVFGDLCSNLATLNLNSGSSGTSDQDTLAPLPHPAAPWPLGQGYPYQYPGPPPCFPPAYQDPGFSYGSGSTGSQQSEGSKSSGSTRSSRRAPGREKERRAAGAGGSGSESDHTAPSGVGSSWRERPAGQLSRGSSPRSQASATAPGLPPPHPTTKAYTVVGGPPGGPPVRELAAVPPELTGSRQSFQKAMGNPCEFFVDIM
As to B4, the binding entry in assay [3] and in assay [4] was “binds” in each case.

B5: DVL-1 ΔDEP (1-400 aa), Myc-tagged (domain or fragment, UniProt O14640 1-400)
chain: MAETKIIYHMDEEETPYLVKLPVAPERVTLADFKNVLSNRPVHAYKFFFKSMDQDFGVVKEEIFDDNAKLPCFNGRVVSWLVLAEGAHSDAGSQGTDSHTDLPPPLERTGGIGDSRPPSFHPNVASSRDGMDNETGTESMVSHRRERARRRNREEAARTNGHPRGDRRRDVGLPPDSASTALSSELESSSFVDSDEDGSTSRLSSSTEQSTSSRLIRKHKRRRRKQRLRQADRASSFSSITDSTMSLNIVTVTLNMERHHFLGISIVGQSNDRGDGGIYIGSIMKGGAVAADGRIEPGDMLLQVNDVNFENMSNDDAVRVLREIVSQTGPISLTVAKCWDPTPRSYFTVPRADPVRPIDPAAWLSHTAALTGALPRYGTSPCSSAVTRTSSSSLTSSVPG
Consider B5, for which the binding entry in assay [2] is given as “binds”.

B6: DVL-1 ΔDIX (200 C-terminal aa), Myc-tagged (domain or fragment, UniProt O14640 200-695)
chain: TSRLSSSTEQSTSSRLIRKHKRRRRKQRLRQADRASSFSSITDSTMSLNIVTVTLNMERHHFLGISIVGQSNDRGDGGIYIGSIMKGGAVAADGRIEPGDMLLQVNDVNFENMSNDDAVRVLREIVSQTGPISLTVAKCWDPTPRSYFTVPRADPVRPIDPAAWLSHTAALTGALPRYGTSPCSSAVTRTSSSSLTSSVPGAPQLEEAPLTVKSDMSAVVRVMQLPDSGLEIRDRMWLKITIANAVIGADVVDWLYTHVEGFKERREARKYASSLLKHGFLRHTVNKITFSEQCYYVFGDLCSNLATLNLNSGSSGTSDQDTLAPLPHPAAPWPLGQGYPYQYPGPPPCFPPAYQDPGFSYGSGSTGSQQSEGSKSSGSTRSSRRAPGREKERRAAGAGGSGSESDHTAPSGVGSSWRERPAGQLSRGSSPRSQASATAPGLPPPHPTTKAYTVVGGPPGGPPVRELAAVPPELTGSRQSFQKAMGNPCEFFVDIM
B6: in assay [2], the binding result is on record as “binds”.

B7: DVL-2 PDZ domain (200-400 aa), Myc-tagged (domain or fragment, UniProt O14641 200-400)
chain: TSELESTSLGDSDEEDTMSRFSSSTEQSSASRLLKRHRRRRKQRPPRLERTSSFSSVTDSTMSLNIITVTLNMEKYNFLGISIVGQSNERGDGGIYIGSIMKGGAVAADGRIEPGDMLLQVNDMNFENMSNDDAVRVLRDIVHKPGPIVLTVAKCWDPSPQAYFTLPRNEPIQPIDPAAWVSHSAALTGTFPAYPGSSSMS
For the molecule B7, the binding result in assay [2] was “binds”.

B8: DVL-2 ΔDIX (200 C-terminal aa), Myc-tagged (domain or fragment, UniProt O14641 200-736)
chain: TSELESTSLGDSDEEDTMSRFSSSTEQSSASRLLKRHRRRRKQRPPRLERTSSFSSVTDSTMSLNIITVTLNMEKYNFLGISIVGQSNERGDGGIYIGSIMKGGAVAADGRIEPGDMLLQVNDMNFENMSNDDAVRVLRDIVHKPGPIVLTVAKCWDPSPQAYFTLPRNEPIQPIDPAAWVSHSAALTGTFPAYPGSSSMSTITSGSSLPDGCEGRGLSVHTDMASVTKAMAAPESGLEVRDRMWLKITIPNAFLGSDVVDWLYHHVEGFPERREARKYASGLLKAGLIRHTVNKITFSEQCYYVFGDLSGGCESYLVNLSLNDNDGSSGASDQDTLAPLPGATPWPLLPTFSYQYPAPHPYSPQPPPYHELSSYTYGGGSASSQHSEGSRSSGSTRSDGGAGRTGRPEERAPESKSGSGSESEPSSRGGSLRRGGEASGTSDGGPPPSRGSTGGAPNLRAHPGLHPYGPPPGMALPYNPMMVVMMPPPPPPVPPAVQPPGAPPVRDLGSVPPELTASRQSFHMAMGNPSEFFVDVM
Turning to B8, the binding entry in assay [2] was “binds”.
